Measured values from the supplement of paper PMC4604168 (melanoma cell lines).
The other results are listed elsewhere or left out. Many values rest on one well or one pass, so single values are uncertain.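 The apoptosis fraction was the count of cleaved-PARP antibody-stained nuclei relative to all DNA-stained nuclei, imaged in 1,536-well plates. Screening doses were set so most cells survived, and baseline and induced cleaved-PARP levels vary greatly across cell lines.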

The molecules below were run on CBRC014 (line from a melanoma biopsy) (assay: cleaved PARP positive nuclei fraction relative to DMSO control; melanoma cells; higher = more apoptosis). Conditions: library dose: low library concentration; 72 h.

Row | Structure (SMILES) | cleaved PARP positive nuclei fraction
1 | CN(c1ncccc1CNc1nc(Nc2ccc3c(c2)CC(=O)N3)ncc1C(F)(F)F)S(C)(=O)=O + COc1ccc(-c2ccc3c(N4CCOCC4)nc(N4C[C@@H](C)O[C@@H](C)C4)nc3n2)cc1CO [KU0063794] (first compound 0.08 µM, partner dose 0.02 µM) | 119%
2 | CCN(CC)CCNC(=O)c1c(C)[nH]c(/C=C2\C(=O)Nc3ccc(F)cc32)c1C [sunitinib] + CCN(CC)CCCCNc1ncc2cc(-c3cc(OC)cc(OC)c3)c(NC(=O)NC(C)(C)C)nc2n1 [PD173074] (first compound 0.4 µM, partner dose 0.1 µM) | 93.6%
3 | Cn1cnc2c(F)c(Nc3ccc(Br)cc3Cl)c(C(=O)NOCCO)cc21 [selumetinib] + O=C(Nc1ccccc1)c1cc([N+](=O)[O-])ccc1Cl [GW9662] (first compound 0.015 µM, partner dose 2 µM) | 97.6%
4 | C[C@@H](N)c1ccc(C(=O)Nc2ccnc3[nH]ccc23)cc1 + COc1ccc2c(c1)CCC1C2CCC2(C)C(NCCCCCCN3C(=O)C=CC3=O)CCC12 [U73122] (first compound 0.4 µM, partner dose 0.4 µM) | 179%
5 | CC(=O)O[C@@]12CO[C@@H]1C[C@H](O)[C@@]1(C)C(=O)[C@H](O)C3=C(C)[C@@H](OC(=O)[C@H](O)[C@@H](NC(=O)OC(C)(C)C)c4ccccc4)C[C@@](O)([C@@H](OC(=O)c4ccccc4)[C@H]21)C3(C)C [Docetaxel] + COc1ccc(-c2ccc3c(N4CCOCC4)nc(N4C[C@@H](C)O[C@@H](C)C4)nc3n2)cc1CO [KU0063794] (first compound 0.0001 µM, partner dose 0.02 µM) | 207%
6 | CS(=O)(=O)c1ccc(C(=O)Nc2ccc(Cl)c(-c3ccccn3)c2)c(Cl)c1 [vismodegib] + COc1cc(N2CCC(N3CCN(C)CC3)CC2)ccc1Nc1ncc(Cl)c(Nc2ccccc2S(=O)(=O)C(C)C)n1 [NVP-TAE684] (first compound 1 µM, partner dose 0.08 µM) | 102%
7 | NC(=O)c1ccc(N(C(N)=O)c2c(F)cccc2F)nc1-c1ccc(F)cc1F + O=C(O)C(=O)Nc1sc2c(c1C(=O)O)CCNC2 [TCS401] (first compound 0.4 µM, partner dose 1.66667 µM) | 89%
8 | CCN(CC)CCNC(=O)c1c(C)[nH]c(/C=C2\C(=O)Nc3ccc(F)cc32)c1C [sunitinib] + CC(C)CCN1c2nc(Nc3cc(F)c(O)c(F)c3)ncc2N(C)C(=O)C1C [BID1870] (first compound 0.4 µM, partner dose 0.2 µM) | 57.1%
